PubChem BioAssay AID504784 | Drosophila RNAi Screening Center, 2011

- Assay: 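Genome-wide knock-down for genes giving too much or too little stored lipid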 (primary screen)
- System: Drosophila Kc167 embryonic cells
- Reagent: long dsRNA against Drosophila genes, about 250 ng dsRNA per well
- Duration: 4 days
- Challenge: cells fed 400 µM oleic acid bound to BSA
- Read-out: 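Microscope images give a droplet-to-nucleus area ratio, taken as log and converted to a screen-wide B-score; higher values mean greater lipid storage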
- Direction: droplet/nuclear area B-score: higher = more stored lipid (overstorage)
The deposit covers about 17,000 reagents; this is an unselected part of those that have a named target and a result. 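Each column is one replicate's B-score; the combined score over replicates was not deposited, so single values may mislead.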 A plus sign joins genes that one reagent is predicted to hit.

gene | DRSC id | droplet/nuclear area B-score, replicate 1 | droplet/nuclear area B-score, replicate 2 | droplet/nuclear area B-score, replicate 3
CG15425 | DRSC00440 | 0.0527 | -0.342 | –
Frmd5 (FERM domain containing) | DRSC02802 | 0.67 | 0.341 | –
CG10947 | DRSC02111 | 0.697 | -1.5 | –
CG34409 | DRSC14577 | 0.793 | 0.443 | –
CG34409 | DRSC21667 | -0.966 | 0.00394 | –
Ugt37A1 (UDP-glycosyltransferase family 37 member A1) | DRSC02114 | 0.00786 | 0.0402 | –
CG14329 | DRSC14808 | -0.739 | 0.541 | –
Hexo1 (Hexosaminidase 1) | DRSC08663 | -1.68 | -0.739 | –
CG8003 | DRSC10946 | -0.578 | -1.25 | –
CG34174 | DRSC00101 | 0.275 | -0.0452 | –
LanA (Laminin A) | DRSC11207 | 0.809 | -0.821 | –
CG30034 (retired record) | DRSC05288 | 0.834 | 0.382 | –
CG45105 | DRSC15002 | 2.01 | 3.94 | –
CG45105 | DRSC15833 | 2.33 | 2.15 | –
Wee1 (Wee1 kinase) | DRSC03635 | -0.336 | -0.137 | –
Wee1 (Wee1 kinase) | DRSC23318 | 1.07 | 2.67 | –
CG9609 | DRSC20199 | 0.147 | -0.457 | –
Hrd3 (HMG-coA reductase degradation 3) | DRSC14156 | 0.152 | 0.128 | –
CG8321 | DRSC07148 | -0.689 | -0.0416 | –
CG31683 + CG18858 | DRSC02703 | -0.418 | 0.999 | –
Cul2 (Cullin 2) | DRSC03710 | – | 0.519 | –
Pgi (Phosphoglucose isomerase) | DRSC07507 | 2.39 | 0.767 | –
CG13622 | DRSC14624 | -0.507 | 1.15 | –
CG6294 + CG6299 | DRSC19980 | 1.12 | -1.44 | –
CG12895 | DRSC06210 | 0.307 | 0.16 | –
l(3)07882 (lethal (3) 07882) | DRSC15882 | 0.243 | 0.881 | –
oxt (peptide O-xylosyltransferase) | DRSC08522 | 1.63 | – | –
CG14109 | DRSC10112 | -0.00453 | -1.08 | –
CG14370 | DRSC14832 | 0.124 | 0.219 | –
CG15549 | DRSC15087 | 0.702 | 0.408 | –
CG16756 | DRSC18115 | -2.35 | 1.01 | –
Polr2E (RNA polymerase II, I and III subunit E) | DRSC06100 | -3.77 | 0.176 | –
mod(mdg4) (modifier of mdg4) | DRSC13478 | 0.263 | 0.0143 | –
mod(mdg4) (modifier of mdg4) | DRSC15042 | 1.9 | 0.203 | –
mod(mdg4) (modifier of mdg4) | DRSC17000 | -0.298 | 0.128 | –
glob1 (globin 1) | DRSC16959 | -0.115 | -0.0336 | –
CG7368 | DRSC10826 | -0.963 | -1.34 | -0.015
CG7368 | DRSC22821 | -0.542 | -2.86 | –
zen2 (zerknullt-related) | DRSC12633 | -0.00126 | 0.62 | –
CG11893 | DRSC14429 | 0.0004 | -0.337 | –
cni (cornichon) | DRSC03512 | -2.65 | -1.88 | –
CG3651 | DRSC03730 | -1.19 | -1.84 | –
Ube3a (Ubiquitin protein ligase E3A) | DRSC10600 | -0.92 | -0.281 | –
gem (gemini) | DRSC06093 | 0.328 | 0.287 | –
gem (gemini) | DRSC06847 | 0.402 | 1.88 | –
CG6583 | DRSC02972 | -0.0398 | -1.4 | –
EMC1 (ER membrane protein complex subunit 1) | DRSC15455 | 2.15 | -0.381 | –
TTLL1B (Tubulin tyrosine ligase-like 1B) | DRSC08594 | -0.537 | -0.405 | –
CG13813 | DRSC10068 | 0.854 | -0.46 | –
obst-B (obstructor-B) | DRSC01987 | -1.39 | -0.134 | –
CG31910 + snoRNA:Me28S-G2743 (retired record) | DRSC00946 | -0.303 | -2.13 | –
Sec13 (Secretory 13) | DRSC14144 | -0.97 | 0.13 | –
GstD2 (Glutathione S transferase D2) | DRSC16684 | 0.909 | 0.899 | –
row (relative of woc) | DRSC07076 | 4.37 | – | –
row (relative of woc) | DRSC07077 | 0.65 | 0.562 | –
CG31601 | DRSC03678 | -0.337 | 0.2 | –

7 neighbouring reagents already listed, quoted:
gene | DRSC id | droplet/nuclear area B-score, replicate 1 | droplet/nuclear area B-score, replicate 2 | droplet/nuclear area B-score, replicate 3
CG12895 | DRSC06210 | 0.307 | 0.16 | –
l(3)07882 (lethal (3) 07882) | DRSC15882 | 0.243 | 0.881 | –
oxt (peptide O-xylosyltransferase) | DRSC08522 | 1.63 | – | –
CG14109 | DRSC10112 | -0.00453 | -1.08 | –
CG14370 | DRSC14832 | 0.124 | 0.219 | –
CG15549 | DRSC15087 | 0.702 | 0.408 | –
CG16756 | DRSC18115 | -2.35 | 1.01 | –
